Reference: article PMC10570296

Target: PHD motif of PHF2 (segment) (human)
Assay: pull-down; Flag/SBP-tagged segments purified on streptavidin (SA) affinity beads from lysates of transfected HepG2 or 293T cells after MG132 for 8 h; immunoblotting

binding: binds
B1: Flag-tagged rat SREBP1c, amino-terminal fragment (1–403 amino acids) (domain or fragment, UniProt P56720-1 1-403)
chain: MDCTFEDMLQLINNQDSDFPGLFDAPYAGGETGDTGPSSPGASSPESFSSPASLGSSLEAFLGGPKVTPAPLSPPPSAPTAVKMYPSVPPFSPGPGIKEEPVPLTILQPPAPQPSPGTLLPPSFPPPPVQLSPAPVLGYSSLPSGFSGTLPGNTQQTPSSLPLGSTPGISPTPLHTQVQSSAAQQPPPASAAPRMSTVASQIQQVPVVLQPHFIKADSLLLTAVKTDTGATMKTAGINTLAPGTAVQAGPLQTLVSGGTILATVPLVVDTDKLPIHRLAAGGKALGSAQSRGEKRTAHNAIEKRYRSSINDKIVELKDLVVGTEAKLNKSAVLRKAIDYIRFLQHSNQKLKQENLTLRSAHKSKSLKDLVSACGSGGGTDVSMEGMKPEVVETLTPPPSDAGS

Results are given in words; binding and its absence hold for the method and conditions named. Binding seen in cells or lysates may run through a third protein. Binding can be weak; no strength is given. Tags and fused reporters may be left off the sequences shown.
